{"source": "patent US8993599B2", "about": "“Pharmaceutical formulations useful for inhibiting acid secretion and methods for making and using them” (Santarus, Inc., priority 2003, dated 2015)", "assay": "Thermal Gravimetric Analysis (TGA) of neat omeprazole and omeprazole microspheres", "type": "physicochemical", "conditions": "up to 150° C.; nitrogen, ramp 10° C./minute", "note": "At least one structure is not confirmed: it was looked up by name or label, or the drawing left a doubt."}
{"smiles": "COc1ccc2[nH]c([S+]([O-])Cc3ncc(C)c(OC)c3C)nc2c1", "note": "(stereo not shown) [neat omeprazole]", "values": [{"measurement": "weight loss (TGA)", "value": "very little weight loss"}]}
